One assay has as its target T1, Sir2-myc (Drosophila) (UniProt Q9VK34).
T1 sequence: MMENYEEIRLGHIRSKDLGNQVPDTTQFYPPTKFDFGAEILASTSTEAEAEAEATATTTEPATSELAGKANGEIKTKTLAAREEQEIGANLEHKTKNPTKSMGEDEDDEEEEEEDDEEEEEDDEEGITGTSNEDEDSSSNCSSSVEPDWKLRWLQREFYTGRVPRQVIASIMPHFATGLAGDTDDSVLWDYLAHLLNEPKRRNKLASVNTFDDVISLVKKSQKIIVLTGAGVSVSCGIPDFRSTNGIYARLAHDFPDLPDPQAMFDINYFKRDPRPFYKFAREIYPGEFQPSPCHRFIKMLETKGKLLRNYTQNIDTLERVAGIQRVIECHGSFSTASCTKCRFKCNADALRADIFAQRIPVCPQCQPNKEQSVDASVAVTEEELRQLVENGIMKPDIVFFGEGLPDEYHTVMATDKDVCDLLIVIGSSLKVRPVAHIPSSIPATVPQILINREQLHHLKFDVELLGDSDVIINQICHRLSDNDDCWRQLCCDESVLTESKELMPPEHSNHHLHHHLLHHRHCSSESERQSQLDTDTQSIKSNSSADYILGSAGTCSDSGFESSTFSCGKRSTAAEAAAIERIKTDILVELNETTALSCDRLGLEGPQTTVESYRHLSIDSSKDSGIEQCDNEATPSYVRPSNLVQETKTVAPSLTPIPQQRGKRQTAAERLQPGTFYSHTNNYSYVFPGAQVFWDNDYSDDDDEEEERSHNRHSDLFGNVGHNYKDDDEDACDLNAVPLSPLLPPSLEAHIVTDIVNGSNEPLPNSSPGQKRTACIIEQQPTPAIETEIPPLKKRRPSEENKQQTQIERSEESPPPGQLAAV
The assay is described as follows: co-IP.

For assay [1], the target named is GST-tagged Atg8a-WT (Drosophila) (UniProt Q9W2S2). The assay is described as follows: pull-down.
The target of assay [2] is T2, GST-Atg8a N-terminal half (amino acid residues 1-71) (Drosophila) (UniProt Q9W2S2).
T2 sequence: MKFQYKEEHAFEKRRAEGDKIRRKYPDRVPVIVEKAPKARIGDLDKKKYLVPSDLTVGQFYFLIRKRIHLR
The assay is described as follows: pull-down.

The target in assay [3] is GST-tagged Atg8a-LDS mutant (Y49A) (Drosophila) (UniProt Q9W2S2). Put plainly: pull-down.

Results are given in words; binding and its absence hold for the method and conditions named. In cells and extracts the contact can be indirect. Some entries that bind do so weakly or less than the wild type. Where a sequence is shown, tags or fusion partners need not be part of it.

As for “mCherry-Atg8a (from UniProt Q9W2S2 1-121)”, the binding entry with Sir2-myc (Drosophila) is given as “binds”.

B1: radiolabelled myc-YL-1 WT (protein, UniProt Q9VKM6 1-351)
chain: MAASRSRRNNAGNKIAHLLNEEEEDDFYKTSYGGFQEDEEDKEYEQKDEEEDVVDSDFSIDENDEPVSDQEEAPEKKRKRGVVNTKAYKETKPAVKKETKATPALHKKRPGGGVTKRRPRPRFTVLDSGRKSIRTSTAIKTQATKIRLKELDDARKRKKKKVRVEDYMPTQEELLEEAKITEEENTKSLEKFQKMELEKKKSRPTKRTFSGPTIRYHSLTMPAMRKPTRGANPAVDSKDLAGKCERTFVTIENDFNDKVFQSLFRHKAPPKASNGICPITRLPARYFDPITQQPYYSIQAFKILREAYYMQLEQQGGGSEQPELAKWLEWRKLVKENRLKASAAASKNGDN
modifications: 35S-methionine-labelled
On to B1, for which the binding result in assay [1], in assay [2] and in assay [3] was “binds” each time.

B2: 6×His-Sir2 (enzyme, UniProt Q9VK34 1-823)
chain: T1 sequence
Regarding B2, the binding entry in assay [1] is reported as “binds”.

Values taken from doi:10.1101/611731.
